Results are given in words; binding and its absence hold for the method and conditions named. For some of these results: In cells and extracts the contact can be indirect. Some binding calls cover weakened binding; strength is not graded here. For some of these results: Where a sequence is shown, tags or fusion partners need not be part of it.
What was measured:
[1] = biological target: endogenous calnexin (HEK293T and other human cells) (human) (UniProt P27824); assay: co-immunoprecipitation from HEK293T cells transfected with HA-tagged Nef and treated with DMSO, NSC 1758, NSC 13987 or NSC 92938; IP with anti-HA agarose, western blot for Nef and calnexin; densitometry of 3 experiments
[2] = biological target: T1, recombinant calnexin cytoplasmic tail (CNX-CT), N-terminal His-tag and SUMO domain, purified from E. coli (human) (UniProt P27824); assay: SPR (Biacore T-200, CM5 chip), CNX-CT immobilised by amine coupling, myristoylated NefSF2 injected at 6.25-200 nM [right panel 'Nef BINDING TO CNX-CT']
T1 sequence: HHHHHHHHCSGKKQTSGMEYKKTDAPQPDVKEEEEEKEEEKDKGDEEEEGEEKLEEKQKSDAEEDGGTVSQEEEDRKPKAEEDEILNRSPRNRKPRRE

Sequences of proteins named here, by UniProt entry; tags and fusion partners are left off. A change or cut given only in a name is not applied to a line headed by its entry. Residues count along the entry.
UniProt P27824: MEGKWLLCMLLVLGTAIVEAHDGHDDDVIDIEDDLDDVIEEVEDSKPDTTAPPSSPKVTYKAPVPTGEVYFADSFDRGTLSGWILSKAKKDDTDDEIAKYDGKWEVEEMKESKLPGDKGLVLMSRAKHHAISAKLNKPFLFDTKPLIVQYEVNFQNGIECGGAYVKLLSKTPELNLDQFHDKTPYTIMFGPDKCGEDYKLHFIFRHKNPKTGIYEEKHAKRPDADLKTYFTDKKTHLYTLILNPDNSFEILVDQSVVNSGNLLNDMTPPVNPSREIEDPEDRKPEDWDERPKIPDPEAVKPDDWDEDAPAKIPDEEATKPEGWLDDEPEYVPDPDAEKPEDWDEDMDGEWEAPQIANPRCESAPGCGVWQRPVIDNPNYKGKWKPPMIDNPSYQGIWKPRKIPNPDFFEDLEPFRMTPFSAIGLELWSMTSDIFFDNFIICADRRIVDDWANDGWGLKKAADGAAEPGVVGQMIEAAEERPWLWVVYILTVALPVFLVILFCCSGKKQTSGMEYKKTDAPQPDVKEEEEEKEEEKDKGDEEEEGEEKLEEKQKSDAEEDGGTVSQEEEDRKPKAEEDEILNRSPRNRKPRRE
UniProt P03407, residues 2-210: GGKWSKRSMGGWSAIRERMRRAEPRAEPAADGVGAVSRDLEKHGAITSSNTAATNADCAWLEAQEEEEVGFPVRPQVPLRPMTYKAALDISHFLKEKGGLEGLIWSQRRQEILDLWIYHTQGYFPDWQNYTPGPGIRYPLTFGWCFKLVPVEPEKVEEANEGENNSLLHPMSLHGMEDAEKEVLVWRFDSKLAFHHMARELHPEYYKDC

[3] = biological target: T1, recombinant calnexin cytoplasmic tail (CNX-CT), N-terminal His-tag and SUMO domain, purified from E. coli (human); assay: SPR with purified recombinant proteins (legend of FIG. 5)
[4] = biological target: T2, recombinant full-length calnexin (CNX), His-tagged, purified from E. coli after removal of the CL7 tag (human) (UniProt P27824); assay: as above
T2 sequence: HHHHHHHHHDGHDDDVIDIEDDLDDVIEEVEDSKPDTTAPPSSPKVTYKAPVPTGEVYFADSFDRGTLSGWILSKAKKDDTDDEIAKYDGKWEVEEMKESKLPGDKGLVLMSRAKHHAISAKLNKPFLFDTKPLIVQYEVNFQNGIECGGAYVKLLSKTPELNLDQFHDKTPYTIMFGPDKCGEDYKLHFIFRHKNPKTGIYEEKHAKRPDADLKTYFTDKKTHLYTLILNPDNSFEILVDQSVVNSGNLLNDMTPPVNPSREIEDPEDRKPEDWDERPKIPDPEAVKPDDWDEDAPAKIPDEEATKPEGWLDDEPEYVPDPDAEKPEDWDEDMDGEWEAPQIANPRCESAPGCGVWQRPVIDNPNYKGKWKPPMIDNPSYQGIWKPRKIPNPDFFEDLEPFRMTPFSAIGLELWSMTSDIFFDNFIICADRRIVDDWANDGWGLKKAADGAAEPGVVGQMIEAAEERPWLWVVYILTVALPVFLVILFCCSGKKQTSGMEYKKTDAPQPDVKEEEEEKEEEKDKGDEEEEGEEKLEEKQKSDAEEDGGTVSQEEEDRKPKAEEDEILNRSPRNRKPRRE

[5] = biological target: T1, recombinant calnexin cytoplasmic tail (CNX-CT), N-terminal His-tag and SUMO domain, purified from E. coli (human); assay: brief legend of FIG. 5A
[6] = biological target: T2, recombinant full-length calnexin (CNX), His-tagged, purified from E. coli after removal of the CL7 tag (human); assay: brief legend of FIG. 5A
[7] = biological target: T2, recombinant full-length calnexin (CNX), His-tagged, purified from E. coli after removal of the CL7 tag (human); assay: SPR (Biacore T-200, CM5 chip), CNX immobilised by amine coupling, myristoylated NefSF2 injected at 6.25-200 nM in triplicate [left panel 'Nef BINDING TO CNX']

Measured: binding

HA-tagged Nef (NefBRU) (from UniProt P03406 2-206)
binds: [1]

myristoylated NefSF2 (from UniProt P03407 2-210)
binds: [2] | [3] | [4] | [5] | [6] | [7]

— patent US10684274 (GEORGE WASHINGTON UNIVERSITY A CONGRESSIONALLY CHARTERED …, dated 2020)
